Experimental data published in patent US20220220215A1.
No constants are given. Whether binding was seen depends on the method and setting. Some results given as binding are weak or reduced against the parent protein; the word gives no strength.

Protein sequences, listed by entry. Tags and fused reporters are not part of them. Lines headed by an entry give the natural chain unless they say otherwise; changes in a name come on top.
UniProt Q07011: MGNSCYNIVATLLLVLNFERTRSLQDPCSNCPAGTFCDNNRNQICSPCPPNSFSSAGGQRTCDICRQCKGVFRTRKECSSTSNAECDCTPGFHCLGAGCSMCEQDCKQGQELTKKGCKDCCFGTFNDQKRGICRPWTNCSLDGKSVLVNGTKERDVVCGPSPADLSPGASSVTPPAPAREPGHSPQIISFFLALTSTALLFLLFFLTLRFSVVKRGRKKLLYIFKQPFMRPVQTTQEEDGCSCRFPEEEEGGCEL

Molecular target: human CD137 expressed on cells (human) (UniProt Q07011)
Assay: FMAT (Mirrorball), His-tagged sample on CHO human CD137 cells

Row | binding | Binder
1 | binds | 003BB172-E01 (VHH, not shown: small tags and cut ends) VH: EVQLVESGGGLVQPGGSLRLSCAASGFTFSNYGMHWVRQAPGKRLEWVAVISNDGNTKTYADSVKGRFTISRDNSKNMLYLQMTSLRTEDTAVYYCAQDETTTVTASYYFDYWGQGTLVTVSS
2 | binds | 003BB172-E01-1 (VHH, not shown: small tags and cut ends) VHH: EVQLVESGGGLVQPGGSLRLSCAASGFTFSNYGMHWVRQAPGKGLEWVAVISNDGNTKTYADSVKGRFTISRDNSKNMLYLQMTSLRTEDTAVYYCAQDETTTVTASYYFDYWGQGTLVTVSS
